Experimental data as given in patent US7271197B2, “Phenethanolamine derivatives” (Glaxo Group Limited, priority 2002, dated 2007).
Some of these results come from one statement about several compounds together.

Chains of the proteins cited; added tags and fusions are not shown.
UniProt P07550, whole entry: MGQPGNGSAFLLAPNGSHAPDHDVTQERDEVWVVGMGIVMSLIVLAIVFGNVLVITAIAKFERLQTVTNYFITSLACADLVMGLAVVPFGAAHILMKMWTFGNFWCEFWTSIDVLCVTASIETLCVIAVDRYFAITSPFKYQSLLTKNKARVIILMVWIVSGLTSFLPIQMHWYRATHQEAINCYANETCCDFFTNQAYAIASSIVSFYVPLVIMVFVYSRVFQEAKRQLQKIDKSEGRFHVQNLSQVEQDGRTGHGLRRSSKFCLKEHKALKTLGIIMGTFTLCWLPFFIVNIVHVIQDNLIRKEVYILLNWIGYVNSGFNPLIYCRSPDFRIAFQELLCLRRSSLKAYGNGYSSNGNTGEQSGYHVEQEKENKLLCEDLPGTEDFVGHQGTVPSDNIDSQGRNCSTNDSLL

molecular target: T1, human beta 2 adrenoreceptor (Homo sapiens, UniProt P07550); test: frog melanophores transfected with the human beta 2 adrenoreceptor, pigment dispersal (light transmittance); format: cell-based; conditions: melatonin-induced pigment aggregation, read-out: IC50 at the human beta 2 adrenoreceptor (beta 2 agonist activity)
T1 construct: expressed in transfected cells; host or cells: frog melanophores

IC50, < 1000 nM:
NS(=O)(=O)c1cccc(COCCOc2ccc(CCNC[C@H](O)c3ccc(O)c(CO)c3)cc2)c1 [Example 18, 3-[(2-{4-[2-({(2R)-2-Hydroxy-2-[4-hydroxy-3-(hydroxymethyl)phenyl]ethyl}amino)ethyl]phenoxy}ethoxy)methyl]benzenesulfonamide]
O=C(O)c1cccc(COCCOc2ccc(CCNC[C@H](O)c3ccc(O)c(CO)c3)cc2)c1 [Example 20, 3-[(2-{4-[2-({(2R)-2-Hydroxy-2-[4-hydroxy-3-(hydroxymethyl)phenyl]ethyl}amino)ethyl]phenoxy}ethoxy)methyl]benzoic acid acetate]
CCCCNC(=O)c1cccc(COCCOc2ccc(CCNC[C@H](O)c3ccc(O)c(CO)c3)cc2)c1 [Example 44, N-Butyl-3-[(2-{4-[2-({(2R)-2-hydroxy-2-[4-hydroxy-3-(hydroxymethyl)phenyl]ethyl}amino)ethyl]phenoxy}ethoxy)methyl]benzamide acetate]
NC(=O)Nc1cccc(CCCCOc2ccc(CCNC[C@H](O)c3ccc(O)c(CO)c3)cc2)c1 [Example 39, N-[3-(4-{4-[2-({(2R)-2-Hydroxy-2-[4-hydroxy-3-(hydroxymethyl)phenyl]ethyl}amino)ethyl]phenoxy}butyl)phenyl]urea acetate]
O=S(=O)(c1cccc(COCCOc2ccc(CCNC[C@H](O)c3ccc(O)c(CO)c3)cc2)c1)C1CCCC1 [Example 24, 4-[(1R)-2-({2-[4-(2-{[3-(Cyclopentylsulfonyl)benzyl]oxy}ethoxy)phenyl]ethyl}amino)-1-hydroxyethyl]-2-(hydroxamethyl)phenol acetate]
CC(=O)Nc1cccc(COCCOc2ccc(CCNC[C@H](O)c3ccc(O)c(CO)c3)cc2)c1 [Example 7, N-{3-[(2-{4-[2-({(2R)-2-Hydroxy-2-[4-hydroxy-3-(hydroxymethyl)phenyl]ethyl}amino)ethyl]phenoxy}ethoxy)methyl]phenyl}acetamide acetate]
N#Cc1cccc(COCCOc2ccc(CCNC[C@H](O)c3ccc(O)c(CO)c3)cc2)c1 [Example 11, 3-[(2-{4-[2-({(2R)-2-Hydroxy-2-[4-hydroxy-3-(hydroxymethyl)phenyl]ethyl}amino)ethyl]phenoxy}ethoxy)methyl]benzonitrile acetate]
CS(=O)(=O)Nc1cccc(COCCOc2ccc(CCNC[C@H](O)c3ccc(O)c(CO)c3)cc2)c1 [Example 12, N-{3-[(2-{4-[2-({(2R)-2-Hydroxy-2-[4-hydroxy-3-(hydroxymethyl)phenyl]ethyl}amino)ethyl]phenoxy}ethoxy)methyl]phenyl}methanesulfonamide acetate]
OCc1cc([C@@H](O)CNCCc2ccc(OCCOCc3ccccc3)cc2)ccc1O [Example 13, 4-{(1R)-2-[(2-{4-[2-)Benzyloxy]ethoxy]phenyl}ethyl)amino]-1-hydroxyethyl}-2-(hydroxymethyl)phenol acetate]
CC(C)NS(=O)(=O)c1cccc(COCCOc2ccc(CCNC[C@H](O)c3ccc(O)c(CO)c3)cc2)c1 [Example 19, 3-[(2-{4-[2-({(2R)-2-Hydroxy-2-[4-hydroxy-3-(hydroxymethyl)phenyl]ethyl}amino)ethyl]phenoxy}ethoxy)methyl]-N-isopropylbenzenesulfonamide]
CCCCCNC(=O)c1cccc(COCCOc2ccc(CCNC[C@H](O)c3ccc(O)c(CO)c3)cc2)c1 [Example 45, 3-[(2-{4-[2-({(2R)-2-Hydroxy-2-[4-hydroxy-3-(hydroxymethyl)phenyl]ethyl}amino)ethyl]phenoxy}ethoxy)methyl]-N-pentylbenzamide acetate]
O=C(Nc1cccc(COCCOc2ccc(CCNC[C@H](O)c3ccc(O)c(CO)c3)cc2)c1)c1ccco1 [Example 9, N-{3-[(2-{4-[2-({(2R)-2-Hydroxyl-2-[4-hydroxy-3-(hydroxymethyl)phenyl]ethyl}amino)ethyl]phenoxy}ethoxy)methyl]phenyl}-2-furamide acetate]
CC(C)NC(=O)c1cccc(COCCOc2ccc(CCNC[C@H](O)c3ccc(O)c(CO)c3)cc2)c1 [Example 28, 3-[(2-{4-[2-({(2R)-2-Hydroxy-2-[4-hydroxy-3-(hydroxymethyl)phenyl]ethyl}amino)ethyl]phenoxy}ethoxymethyl]-N-isopropylbenzamide acetate]
NC(=O)c1cccc(CCCCOc2ccc(CCNC[C@H](O)c3ccc(O)c(CO)c3)cc2)c1 [Example 42, 3-(4-{4-[2-({(2R)-2-Hydroxy-2-[4-hydroxy-3-(hydroxymethyl)phenyl]ethyl}amino)ethyl]phenoxy}butyl)benzamide acetate]
NS(=O)(=O)c1cccc(CCCCOc2ccc(CCNC[C@H](O)c3ccc(O)c(CO)c3)cc2)c1 [Example 38, 3-(4-{4-[2-({(2R)-2-Hydroxy-2-[4-hydroxy-3-(hydroxymethyl)phenyl]ethyl}amino)ethyl]phenoxy}butyl)benzenesulfonamide acetate]
O=C(O)c1cccc(-c2cccc(COCCOc3ccc(CCNC[C@H](O)c4ccc(O)c(CO)c4)cc3)c2)c1 [Example 43, 3′-](2-{4-[2-({(2R)-2-Hydroxy-2-[4-hydroxy-3-(hydroxymethyl)phenyl]ethyl}amino)ethyl]phenoxy}ethoxy)methyl]-1,1′-biphenyl-3-carboxylic acid acetate]
CNS(=O)(=O)c1cccc(COCCOc2ccc(CCNC[C@H](O)c3ccc(O)c(CO)c3)cc2)c1 [Example 31, 3-[(2-{4-[2-({(2R)-2-Hydroxy-2-[4-hydroxy-3-(hydroxymethyl)phenyl]ethyl}amino)ethyl]phenoxy}ethoxy)methyl]-N-methylbenzenesulfonamide acetate]
N#Cc1cccc(CCCCOc2ccc(CCNC[C@H](O)c3ccc(O)c(CO)c3)cc2)c1 [Example 41, 3-(4-{4-[2-({(2R)-2-Hydroxy-2-[4-hydroxy-3-(hydroxymethyl)phenyl]ethyl}amino)ethyl]phenoxy}butyl)benzonitrile acetate]
O=C(NC1CCCCC1)c1cccc(COCCOc2ccc(CCNC[C@H](O)c3ccc(O)c(CO)c3)cc2)c1 [Example 29, N-Cyclohexyl-3-[(2-{4-[2-({(2R)-2-hydroxy-2-[4-hydroxy-3-(hydroxymethyl)phenyl]ethyl}amino)ethyl]phenoxy}ethoxy)methyl]benzamide acetate]
O=C(Nc1cccc(COCCOc2ccc(CCNC[C@H](O)c3ccc(O)c(CO)c3)cc2)c1)c1cccnc1 [Example 8, N-{3-[(2-{4-[2-({(2R)-2-Hydroxy-2-[4-hydroxy-3-(hydroxymethyl)phenyl]ethyl}amino)ethyl]phenoxy}ethoxy)methyl]phenyl}nicotinamide acetate]
O=S(=O)(NC1CCCCC1)c1cccc(COCCOc2ccc(CCNC[C@H](O)c3ccc(O)c(CO)c3)cc2)c1 [Example 30, N-Cyclohexyl-3-[(2-{4-[2-({(2R)-2-hydroxy-2-[4-hydroxy-3-(hydroxymethyl)phenyl]ethyl}amino)ethyl]phenoxy}ethoxy)methyl]benzenesulfonamide acetate]
O=C(O)c1cccc(CCCCOc2ccc(CCNC[C@H](O)c3ccc(O)c(CO)c3)cc2)c1 [Example 40, 3-(4-{4-[2-({(2R)-2-Hydroxy-2-[4-hydroxy-3-(hydroxymethyl)phenyl]ethyl}amino)ethyl]phenoxy}butyl)benzoic acid acetate]
NC(=O)Nc1cccc(COCCOc2ccc(CCNC[C@H](O)c3ccc(O)c(CO)c3)cc2)c1 [Example 1, N-{3-[(2-[4-[2-({(2R)-2-Hydroxy-2-[4-hydroxy-3-(hydroxymethyl)phenyl]ethyl}amino)ethyl]phenox]ethoxy)methyl]phenyl}urea acetate]
NC(=O)N(c1ccccc1)c1cccc(COCCOc2ccc(CCNC[C@H](O)c3ccc(O)c(CO)c3)cc2)c1 [Example 14, N-{3-[(2-{4-[2-({(2R)-2-Hydroxy-2-[4-hydroxy-3-(hydroxymethyl)phenyl]ethyl}amino)ethyl]phenoxy}ethoxy)methyl]phenyl}-N-phenylurea acetate]
[O-][S+](c1cccc(COCCOc2ccc(CCNCC(O)c3ccc(O)c(CO)c3)cc2)c1)C1CCCC1 [Example 25, 4-[(1R)-2-({2-[4-(2-{[3-(Cyclopentylsufinyl)benzyl]oxy}ethoxy)phenyl]ethyl}amino)-1-hydroxyethyl]-2-(hydroxymethyl)phenol acetate]
CC(C)CNC(=O)c1cccc(COCCOc2ccc(CCNC[C@H](O)c3ccc(O)c(CO)c3)cc2)c1 [Example 46, 3-[(2-{4-[2-({(2R)-2-Hydroxy-2-[4-hydroxy-3-(hydroxymethyl)phenyl]ethyl}amino)ethyl]phenoxy}ethoxy)methyl]-N-isobutylbenzamide acetate]
CC(C)CCNC(=O)c1cccc(COCCOc2ccc(CCNC[C@H](O)c3ccc(O)c(CO)c3)cc2)c1 [Example 47, 3-[(2-{4-[2-({(2R)-2-Hydroxy-2-[4-hydroxy-3-(hydroxymethyl)phenyl]ethyl}amino)ethyl]phenoxy}ethoxy)methyl]-N-isopentylbenzamide acetate]
NC(=O)c1cccc(COCCOc2ccc(CCNC[C@H](O)c3ccc(O)c(CO)c3)cc2)c1 [Example 10, 3-[(2-{4-[2-({(2R)-2-Hydroxy-2-[4-hydroxy-3-(hydroxymethyl)phenyl]ethyl}amino)ethyl]phenoxy}ethoxy)methyl]benzamide acetate]
